# Laboratory results reported in the supplement of paper PMC12819154, “High-throughput peptide-centric local stability assay extends protein–ligand identification to membrane proteins, tissues and bacteria” (Nature Structural & Molecular Biology, 2025).
# The chains behind the UniProt entries cited, without tags or fusion partners. Where a name states a change or a piece, a line headed by the entry shows the natural chain unless it says otherwise.
# UniProt P76537: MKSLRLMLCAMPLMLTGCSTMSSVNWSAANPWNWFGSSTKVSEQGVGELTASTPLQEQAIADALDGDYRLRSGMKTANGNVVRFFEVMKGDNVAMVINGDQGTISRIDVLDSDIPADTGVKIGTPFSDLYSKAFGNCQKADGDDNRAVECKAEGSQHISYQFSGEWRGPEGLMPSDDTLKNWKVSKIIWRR
# UniProt P77668: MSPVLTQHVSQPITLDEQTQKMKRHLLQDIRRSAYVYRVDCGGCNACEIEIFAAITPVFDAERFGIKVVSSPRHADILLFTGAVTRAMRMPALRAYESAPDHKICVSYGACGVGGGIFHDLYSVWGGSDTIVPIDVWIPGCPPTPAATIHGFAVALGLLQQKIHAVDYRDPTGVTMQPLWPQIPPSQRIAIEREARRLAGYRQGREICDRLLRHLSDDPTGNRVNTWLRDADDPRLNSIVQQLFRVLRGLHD
# UniProt P77379: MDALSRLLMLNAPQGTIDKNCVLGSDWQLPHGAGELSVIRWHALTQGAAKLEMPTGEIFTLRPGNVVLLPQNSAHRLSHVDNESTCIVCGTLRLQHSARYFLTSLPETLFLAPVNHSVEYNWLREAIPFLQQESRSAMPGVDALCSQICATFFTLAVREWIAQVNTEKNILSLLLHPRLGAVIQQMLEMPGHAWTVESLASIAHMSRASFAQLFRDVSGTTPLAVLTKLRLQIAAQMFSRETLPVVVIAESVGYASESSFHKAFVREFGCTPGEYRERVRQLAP
# UniProt P76506: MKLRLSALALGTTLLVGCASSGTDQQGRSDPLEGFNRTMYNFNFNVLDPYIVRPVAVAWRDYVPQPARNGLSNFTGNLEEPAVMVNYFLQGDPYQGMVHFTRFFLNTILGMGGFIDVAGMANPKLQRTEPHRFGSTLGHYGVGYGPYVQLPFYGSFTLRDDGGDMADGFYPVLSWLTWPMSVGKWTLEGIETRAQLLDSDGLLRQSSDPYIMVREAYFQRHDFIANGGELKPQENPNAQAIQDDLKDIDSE
# UniProt P76241: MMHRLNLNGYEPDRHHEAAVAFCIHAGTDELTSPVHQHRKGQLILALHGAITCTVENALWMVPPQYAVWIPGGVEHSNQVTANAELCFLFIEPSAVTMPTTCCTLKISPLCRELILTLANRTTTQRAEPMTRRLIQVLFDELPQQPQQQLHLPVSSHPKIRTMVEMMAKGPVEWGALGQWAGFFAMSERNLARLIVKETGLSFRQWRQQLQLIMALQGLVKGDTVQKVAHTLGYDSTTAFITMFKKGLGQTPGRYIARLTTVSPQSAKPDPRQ
# UniProt P76655: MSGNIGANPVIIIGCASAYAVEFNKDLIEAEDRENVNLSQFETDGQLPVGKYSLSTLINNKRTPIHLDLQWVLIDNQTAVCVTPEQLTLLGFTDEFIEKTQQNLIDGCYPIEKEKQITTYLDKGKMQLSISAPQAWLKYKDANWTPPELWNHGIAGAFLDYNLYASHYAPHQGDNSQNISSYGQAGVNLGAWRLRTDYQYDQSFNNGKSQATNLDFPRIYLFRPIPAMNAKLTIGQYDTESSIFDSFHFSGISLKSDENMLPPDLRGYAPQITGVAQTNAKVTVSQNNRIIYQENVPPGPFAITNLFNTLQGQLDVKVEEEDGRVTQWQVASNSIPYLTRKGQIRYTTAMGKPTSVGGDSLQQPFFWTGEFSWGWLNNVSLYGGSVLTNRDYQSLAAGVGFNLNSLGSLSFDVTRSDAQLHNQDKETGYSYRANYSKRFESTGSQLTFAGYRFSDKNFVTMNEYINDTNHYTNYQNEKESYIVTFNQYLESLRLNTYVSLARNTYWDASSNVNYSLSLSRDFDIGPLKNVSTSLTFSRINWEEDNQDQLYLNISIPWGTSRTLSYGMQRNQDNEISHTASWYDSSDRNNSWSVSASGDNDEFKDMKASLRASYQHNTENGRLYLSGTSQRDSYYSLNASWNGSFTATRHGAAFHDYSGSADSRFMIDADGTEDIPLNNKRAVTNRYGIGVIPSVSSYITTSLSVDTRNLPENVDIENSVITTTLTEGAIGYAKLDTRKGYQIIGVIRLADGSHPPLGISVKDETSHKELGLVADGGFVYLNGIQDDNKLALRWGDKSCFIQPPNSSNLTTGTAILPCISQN
# UniProt P76219: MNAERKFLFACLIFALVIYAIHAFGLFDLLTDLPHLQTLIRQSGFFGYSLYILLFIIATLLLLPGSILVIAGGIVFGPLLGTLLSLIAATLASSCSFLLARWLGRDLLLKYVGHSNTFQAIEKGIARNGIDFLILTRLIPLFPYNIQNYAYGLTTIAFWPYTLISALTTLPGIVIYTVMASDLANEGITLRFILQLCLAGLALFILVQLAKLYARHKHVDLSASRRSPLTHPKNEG
# UniProt P77324: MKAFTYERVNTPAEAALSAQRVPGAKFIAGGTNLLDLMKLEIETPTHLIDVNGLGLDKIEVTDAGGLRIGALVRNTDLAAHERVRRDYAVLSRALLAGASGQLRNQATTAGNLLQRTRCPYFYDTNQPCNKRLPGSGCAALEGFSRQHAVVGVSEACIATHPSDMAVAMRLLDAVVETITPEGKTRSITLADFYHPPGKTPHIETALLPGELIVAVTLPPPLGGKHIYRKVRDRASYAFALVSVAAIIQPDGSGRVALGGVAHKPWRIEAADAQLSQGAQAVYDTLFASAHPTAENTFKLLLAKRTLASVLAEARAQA
# UniProt P77180: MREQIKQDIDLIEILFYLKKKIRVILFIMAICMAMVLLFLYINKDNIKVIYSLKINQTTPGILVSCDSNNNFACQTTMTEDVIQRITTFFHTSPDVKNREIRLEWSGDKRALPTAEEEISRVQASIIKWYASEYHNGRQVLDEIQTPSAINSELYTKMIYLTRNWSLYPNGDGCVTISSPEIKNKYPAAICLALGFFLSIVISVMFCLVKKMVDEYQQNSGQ
# UniProt P77374: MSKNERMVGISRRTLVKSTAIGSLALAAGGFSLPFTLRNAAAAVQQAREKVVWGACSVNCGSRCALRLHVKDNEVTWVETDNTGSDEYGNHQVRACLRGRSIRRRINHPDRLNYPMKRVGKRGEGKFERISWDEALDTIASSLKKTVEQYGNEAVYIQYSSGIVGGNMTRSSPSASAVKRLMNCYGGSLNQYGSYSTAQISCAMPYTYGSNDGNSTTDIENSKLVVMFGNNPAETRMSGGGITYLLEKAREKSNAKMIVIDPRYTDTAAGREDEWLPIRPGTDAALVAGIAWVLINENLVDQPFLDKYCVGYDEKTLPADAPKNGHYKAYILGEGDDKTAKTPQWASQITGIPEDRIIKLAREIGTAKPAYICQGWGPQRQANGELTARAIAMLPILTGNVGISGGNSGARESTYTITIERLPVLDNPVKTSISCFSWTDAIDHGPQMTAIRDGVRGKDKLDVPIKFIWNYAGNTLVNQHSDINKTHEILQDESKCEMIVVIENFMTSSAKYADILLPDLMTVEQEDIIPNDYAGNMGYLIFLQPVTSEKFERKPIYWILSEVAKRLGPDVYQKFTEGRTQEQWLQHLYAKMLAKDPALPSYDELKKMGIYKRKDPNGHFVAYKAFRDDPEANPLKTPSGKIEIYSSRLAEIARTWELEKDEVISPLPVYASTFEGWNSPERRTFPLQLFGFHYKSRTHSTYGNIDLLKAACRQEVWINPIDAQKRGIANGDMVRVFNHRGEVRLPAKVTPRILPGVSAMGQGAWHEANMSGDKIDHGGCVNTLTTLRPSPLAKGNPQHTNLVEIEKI
# UniProt P77493: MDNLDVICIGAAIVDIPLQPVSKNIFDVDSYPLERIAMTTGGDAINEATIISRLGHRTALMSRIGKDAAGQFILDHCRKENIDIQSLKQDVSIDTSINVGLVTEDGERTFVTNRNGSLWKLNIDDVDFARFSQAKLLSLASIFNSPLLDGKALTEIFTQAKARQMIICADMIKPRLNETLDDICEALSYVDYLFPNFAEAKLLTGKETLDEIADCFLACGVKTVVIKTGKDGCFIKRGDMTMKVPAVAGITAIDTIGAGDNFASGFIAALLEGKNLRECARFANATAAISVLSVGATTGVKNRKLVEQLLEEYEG
# UniProt P77625: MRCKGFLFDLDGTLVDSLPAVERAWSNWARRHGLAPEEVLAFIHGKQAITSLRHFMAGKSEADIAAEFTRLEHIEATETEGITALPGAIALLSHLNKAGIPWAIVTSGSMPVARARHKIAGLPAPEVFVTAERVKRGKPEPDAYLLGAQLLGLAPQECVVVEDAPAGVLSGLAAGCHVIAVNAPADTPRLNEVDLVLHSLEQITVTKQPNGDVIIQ
# UniProt P75958: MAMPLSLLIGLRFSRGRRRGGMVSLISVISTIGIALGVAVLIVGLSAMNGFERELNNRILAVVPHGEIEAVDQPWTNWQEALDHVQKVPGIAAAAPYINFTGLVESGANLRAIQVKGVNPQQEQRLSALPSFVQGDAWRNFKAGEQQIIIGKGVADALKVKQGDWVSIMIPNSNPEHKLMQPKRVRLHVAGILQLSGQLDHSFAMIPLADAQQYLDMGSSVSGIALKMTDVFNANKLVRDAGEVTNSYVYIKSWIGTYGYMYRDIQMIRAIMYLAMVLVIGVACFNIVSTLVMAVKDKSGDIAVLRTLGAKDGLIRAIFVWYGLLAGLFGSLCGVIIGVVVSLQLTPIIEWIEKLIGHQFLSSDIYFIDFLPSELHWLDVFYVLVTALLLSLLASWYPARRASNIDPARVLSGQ
# UniProt P76196: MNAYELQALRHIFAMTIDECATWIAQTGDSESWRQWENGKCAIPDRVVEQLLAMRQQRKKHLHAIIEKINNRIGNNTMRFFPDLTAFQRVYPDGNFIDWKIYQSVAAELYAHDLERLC
# UniProt P76573: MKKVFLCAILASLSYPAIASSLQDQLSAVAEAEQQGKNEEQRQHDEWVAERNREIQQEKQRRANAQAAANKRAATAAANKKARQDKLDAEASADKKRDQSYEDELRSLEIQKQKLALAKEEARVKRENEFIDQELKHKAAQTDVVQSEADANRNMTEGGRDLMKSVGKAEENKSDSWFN
# UniProt P76044: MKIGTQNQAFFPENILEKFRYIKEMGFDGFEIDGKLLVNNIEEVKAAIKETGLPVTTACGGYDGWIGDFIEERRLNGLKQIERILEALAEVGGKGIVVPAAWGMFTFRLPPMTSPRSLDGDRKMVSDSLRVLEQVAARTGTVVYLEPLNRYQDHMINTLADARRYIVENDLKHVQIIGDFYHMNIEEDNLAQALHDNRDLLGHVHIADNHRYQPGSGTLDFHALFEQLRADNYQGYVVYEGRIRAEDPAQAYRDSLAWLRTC
# UniProt P77333: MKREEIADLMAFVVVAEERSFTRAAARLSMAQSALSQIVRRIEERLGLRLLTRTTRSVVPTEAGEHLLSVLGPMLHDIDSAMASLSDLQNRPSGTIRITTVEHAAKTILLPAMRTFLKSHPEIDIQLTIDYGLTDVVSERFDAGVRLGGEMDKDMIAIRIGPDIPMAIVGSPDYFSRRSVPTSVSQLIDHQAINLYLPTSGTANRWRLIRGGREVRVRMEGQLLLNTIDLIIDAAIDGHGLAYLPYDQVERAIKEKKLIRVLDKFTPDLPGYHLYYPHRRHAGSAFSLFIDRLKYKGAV
# UniProt P76234: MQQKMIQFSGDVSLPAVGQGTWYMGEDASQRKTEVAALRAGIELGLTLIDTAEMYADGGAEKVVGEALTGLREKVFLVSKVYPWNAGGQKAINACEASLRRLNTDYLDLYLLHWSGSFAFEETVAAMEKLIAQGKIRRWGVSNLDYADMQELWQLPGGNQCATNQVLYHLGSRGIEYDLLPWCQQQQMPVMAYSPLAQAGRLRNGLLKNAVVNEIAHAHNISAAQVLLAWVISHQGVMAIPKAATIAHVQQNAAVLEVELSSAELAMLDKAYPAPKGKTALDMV
# UniProt P75954: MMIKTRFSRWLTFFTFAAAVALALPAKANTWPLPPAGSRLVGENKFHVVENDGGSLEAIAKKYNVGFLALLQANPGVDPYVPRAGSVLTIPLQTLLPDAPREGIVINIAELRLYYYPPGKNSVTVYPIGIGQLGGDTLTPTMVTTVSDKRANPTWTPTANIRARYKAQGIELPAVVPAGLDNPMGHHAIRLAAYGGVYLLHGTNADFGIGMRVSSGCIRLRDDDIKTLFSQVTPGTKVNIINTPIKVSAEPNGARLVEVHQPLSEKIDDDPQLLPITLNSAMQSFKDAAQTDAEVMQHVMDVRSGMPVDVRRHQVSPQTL
# UniProt P77522: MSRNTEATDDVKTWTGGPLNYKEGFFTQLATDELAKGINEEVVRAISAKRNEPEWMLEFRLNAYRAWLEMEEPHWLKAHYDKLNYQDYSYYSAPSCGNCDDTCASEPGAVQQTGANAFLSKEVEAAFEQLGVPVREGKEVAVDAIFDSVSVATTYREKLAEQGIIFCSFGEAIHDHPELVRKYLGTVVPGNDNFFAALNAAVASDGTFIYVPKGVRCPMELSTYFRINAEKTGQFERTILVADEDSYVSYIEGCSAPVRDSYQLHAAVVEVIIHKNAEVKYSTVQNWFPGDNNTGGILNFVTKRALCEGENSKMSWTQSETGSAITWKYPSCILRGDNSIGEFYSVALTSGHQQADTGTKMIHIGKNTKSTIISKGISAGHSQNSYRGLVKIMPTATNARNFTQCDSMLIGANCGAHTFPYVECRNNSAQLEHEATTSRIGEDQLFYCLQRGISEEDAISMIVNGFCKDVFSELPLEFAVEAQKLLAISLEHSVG
# The list shows a part of the results. Most entries show no effect beyond the scatter of the controls.
# Compound: CC1(C)S[C@@H]2[C@H](NC(=O)[C@H](N)c3ccccc3)C(=O)N2[C@H]1C(=O)O [ampicillin]
# Assay: log2 fold change of tryptic peptide abundance, ligand vs vehicle (limited proteolysis) (log2 ratio); higher = more trypsin-susceptible (destabilized)
# Conditions: ligand concentration: 10 uM; sample: E. coli crude lysate
row,Target,log2 fold change
1,"UniProt P77554 (peptide sequence: NLQNLQAVLAR, peptide start residue: 195)",-0.489
2,"UniProt P76537 (peptide sequence: AFGNCQKADGDDNR, peptide start residue: 133)",0.202
3,"UniProt P76114 (peptide sequence: QLDEINR, peptide start residue: 81)",0.498
4,"UniProt P77668 (peptide sequence: IAIEREAR, peptide start residue: 189)",0.0681
5,"UniProt P77379 (peptide sequence: WHALTQGAAK, peptide start residue: 41)",0.0995
6,"UniProt P76506 (peptide sequence: AQLLDSDGLLR, peptide start residue: 194)",-0.118
7,"UniProt P77306 (peptide sequence: SIAIAAK, peptide start residue: 334)",-0.591
8,"UniProt P77293 (peptide sequence: ISNPKIEENVGDFR, peptide start residue: 144)",-0.407
9,"UniProt P76241 (peptide sequence: LTTVSPQSAKPDPR, peptide start residue: 259)",-0.391
10,"UniProt P76008 (peptide sequence: LTDAGHQVNNVEVIAR, peptide start residue: 26)",-0.314
11,"UniProt P76062 (peptide sequence: AIEQAINK, peptide start residue: 10)",-0.295
12,"UniProt P76655 (peptide sequence: LYLSGTSQR, peptide start residue: 622)",-0.255
13,"UniProt P76219 (peptide sequence: RSPLTHPK, peptide start residue: 226)",0.33
14,"UniProt P77147 (peptide sequence: LATDPGERPFCSQFAR, peptide start residue: 75)",0.0239
15,"UniProt P77324 (peptide sequence: NQATTAGNLLQR, peptide start residue: 105)",0.154
16,"UniProt P77180 (peptide sequence: LEWSGDKR, peptide start residue: 103)",0.268
17,"UniProt P77374 (peptide sequence: THSTYGNIDLLK, peptide start residue: 698)",-0.54
18,"UniProt P77493 (peptide sequence: ALTEIFTQAK, peptide start residue: 152)",-0.256

# Shown tab-delimited: entries from further up
row	Target	log2 fold change
5	UniProt P77379 (peptide sequence: WHALTQGAAK, peptide start residue: 41)	0.0995
6	UniProt P76506 (peptide sequence: AQLLDSDGLLR, peptide start residue: 194)	-0.118
7	UniProt P77306 (peptide sequence: SIAIAAK, peptide start residue: 334)	-0.591
8	UniProt P77293 (peptide sequence: ISNPKIEENVGDFR, peptide start residue: 144)	-0.407
9	UniProt P76241 (peptide sequence: LTTVSPQSAKPDPR, peptide start residue: 259)	-0.391
10	UniProt P76008 (peptide sequence: LTDAGHQVNNVEVIAR, peptide start residue: 26)	-0.314
11	UniProt P76062 (peptide sequence: AIEQAINK, peptide start residue: 10)	-0.295
12	UniProt P76655 (peptide sequence: LYLSGTSQR, peptide start residue: 622)	-0.255
13	UniProt P76219 (peptide sequence: RSPLTHPK, peptide start residue: 226)	0.33
14	UniProt P77147 (peptide sequence: LATDPGERPFCSQFAR, peptide start residue: 75)	0.0239

# (continued)

row,Target,log2 fold change
1,"UniProt P77625 (peptide sequence: SEADIAAEFTR, peptide start residue: 60)",0.148
2,"UniProt P75958 (peptide sequence: GVADALK, peptide start residue: 153)",0.123
3,"UniProt P76257 (peptide sequence: QLAAMLRPIIEANNGR, peptide start residue: 451)",-0.407
4,"UniProt P76196 (peptide sequence: IYQSVAAELYAHDLER, peptide start residue: 101)",-0.602
5,"UniProt P76573 (peptide sequence: DQSYEDELR, peptide start residue: 98)",-0.313
6,"UniProt P76330 (peptide sequence: LCQTHQHPFSVIQVDLDHFK, peptide start residue: 422)",0.42
7,"UniProt P76044 (peptide sequence: YQDHMINTLADAR, peptide start residue: 151)",-0.147
8,"UniProt P77333 (peptide sequence: LGGEMDKDMIAIR, peptide start residue: 147)",-0.344
9,"UniProt P76422 (peptide sequence: SLLAMGCGAVLMK, peptide start residue: 164)",0.169
10,"UniProt P77467 (peptide sequence: EGVSAFLAK, peptide start residue: 246)",-0.413
11,"UniProt P76148 (peptide sequence: WHNIPQGVSLSEEQQR, peptide start residue: 87)",0.174
12,"UniProt P77252 (peptide sequence: LGVVDVGASLQGR, peptide start residue: 119)",0.159
13,"UniProt P76558 (peptide sequence: FKEYWTEYFQIMK, peptide start residue: 507)",0.27
14,"UniProt P77546 (peptide sequence: RLAPSHVTAPFK, peptide start residue: 15)",-0.213
15,"UniProt P76234 (peptide sequence: KTEVAALR, peptide start residue: 32)",-0.242
16,"UniProt P75954 (peptide sequence: SGMPVDVR, peptide start residue: 304)",-0.188
17,"UniProt P77522 (peptide sequence: RALCEGENSK, peptide start residue: 304)",-0.484
18,"UniProt P77499 (peptide sequence: IALLKMPEDLLTR, peptide start residue: 128)",-0.611
